Results: the supplement of paper PMC12823440, “Inhibitors supercharge kinase turnover through native proteolytic circuits” (Nature, 2025)
The other results are listed elsewhere or left out. Hit calls seldom repeat between salt and free forms of one compound.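 In K562 cells expressing nanoluciferase-fused kinases, luminescence was recorded at 4 h intervals between 2 and 18 h, normalized as percent of control with DMSO at 100% and a positive control at 0%. A significant (2 sigma) signal drop marks a time point as decreased. The authors' rule for a hit is not shown and takes in more than the number of time points.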

Sequences of proteins named here, by UniProt entry; tags and fusion partners are left off. A change or cut given only in a name is not applied to a line headed by its entry.
UniProt Q06187: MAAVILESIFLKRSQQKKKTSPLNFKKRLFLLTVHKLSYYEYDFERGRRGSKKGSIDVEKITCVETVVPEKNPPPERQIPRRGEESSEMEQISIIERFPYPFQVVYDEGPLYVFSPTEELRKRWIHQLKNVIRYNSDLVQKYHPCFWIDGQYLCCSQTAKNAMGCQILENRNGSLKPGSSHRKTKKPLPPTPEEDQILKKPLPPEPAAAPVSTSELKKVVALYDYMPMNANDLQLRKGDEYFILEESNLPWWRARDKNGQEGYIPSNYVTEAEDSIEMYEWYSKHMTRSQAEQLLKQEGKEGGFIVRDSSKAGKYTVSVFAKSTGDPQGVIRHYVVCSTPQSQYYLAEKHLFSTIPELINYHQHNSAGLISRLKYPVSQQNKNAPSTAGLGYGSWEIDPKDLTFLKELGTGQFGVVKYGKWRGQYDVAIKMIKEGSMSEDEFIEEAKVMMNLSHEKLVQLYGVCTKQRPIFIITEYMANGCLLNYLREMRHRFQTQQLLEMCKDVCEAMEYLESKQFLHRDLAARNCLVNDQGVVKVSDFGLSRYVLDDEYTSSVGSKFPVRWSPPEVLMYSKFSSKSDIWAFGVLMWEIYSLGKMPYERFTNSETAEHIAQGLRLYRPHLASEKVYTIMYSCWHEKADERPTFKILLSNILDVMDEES

Test system: BRAF_V600E
Experiment: kinase-Nluc reporter destabilization hit call (1 = scored as downregulated) (binary); higher = compound decreases kinase abundance
Settings: K562; 2-18 h

Row | SMILES | kinase-Nluc reporter destabilization hit call
1 | O=c1cc(O)c2ccccc2o1 [4-Hydroxycoumarin] (10 µM) | inactive: 0
2 | CCCCNc1nc(N)c2[nH]c(=O)n(Cc3ccc(C)nc3)c2n1 (10 µM) | inactive: 0
3 | CCCS(=O)(=O)Nc1ccc(F)c(-n2cc(-c3cncnc3)c3nc(N(C)C4CCN(CC)CC4)ccc32)c1F (2 µM) | inactive: 0
4 | C[C@H]1CC[C@]2(NC1)O[C@H]1C[C@H]3[C@@H]4CC[C@H]5C[C@@H](O[C@@H]6O[C@H](CO)[C@H](O[C@@H]7O[C@H](CO)[C@@H](O)[C@H](O[C@@H]8OC[C@@H](O)[C@H](O)[C@H]8O)[C@H]7O[C@@H]7O[C@H](CO)[C@@H](O)[C@H](O)[C@H]7O)[C@H](O)[C@H]6O)CC[C@]5(C)[C@H]4CC[C@]3(C)[C@H]1[C@@H]2C [Tomatine] (2.5 µM) | inactive: 0
5 | Cc1n[nH]cc1-c1cc2nc([C@@H]3CC4CCN3CC4)[nH]c(=O)c2s1 [Simurosertib] (2.5 µM) | inactive: 0
6 | O=Cc1cn(Cc2ccc(Cl)cc2)c2ccccc12 [Oncrasin-1] (10 µM) | inactive: 0
7 | CC(=O)OC(C)(C)/C=C/C(=O)[C@](C)(O)[C@H]1[C@H](O)C[C@@]2(C)[C@@H]3CC=C4[C@@H](C=C(O)C(=O)C4(C)C)[C@]3(C)C(=O)C[C@]12C [Cucurbitacin E] (2.5 µM) | inactive: 0
8 | C[C@@H]1CC[C@H]2[C@@H](C)C(=O)O[C@@H]3O[C@@]4(C)CC[C@@H]1[C@]32OO4 [Artemisinin] (10 µM) | inactive: 0
9 | COc1ccc2c(c1)/C(=C/c1cnc[nH]1)C(=O)N2 (2.5 µM) | inactive: 0
10 | CC(=O)O[C@H]1[C@H]2[C@@H](OC(=O)Cc3ccccc3)[C@@H](C)C[C@]2(OC(C)=O)C(=O)/C(C)=C/[C@@H]2[C@H](CC[C@@]13CO3)C2(C)C [Euphorbiasteroid] (10 µM) | inactive: 0
11 | O=c1[nH]c2ccccc2n1C1CCN(CCCC(c2ccc(F)cc2)c2ccc(F)cc2)CC1 [Pimozide] (2.5 µM) | inactive: 0
12 | CC(=O)Oc1ccc(/C=C/c2cc(OC(C)=O)cc(OC(C)=O)c2)cc1 [Triacetylresveratrol] (10 µM) | inactive: 0
13 | C/C=C(/C)C(=O)O[C@H]1[C@@H]2[C@H](C)C(=O)O[C@@H]2C[C@@H](C)[C@@H]2C=CC(=O)[C@]21C [Brevilin A] (2.5 µM) | inactive: 0
14 | O=[N+]([O-])/C=C/c1ccc2c(c1)OCO2 (2.5 µM) | inactive: 0
15 | O=C(O)c1nn(Cc2ccc(Cl)cc2Cl)c2ccccc12 [Lonidamine] (10 µM) | inactive: 0
16 | CC(=O)c1c(O)c(C)c(O)c(Cc2c(O)c3c(c(C(=O)/C=C/c4ccccc4)c2O)OC(C)(C)C=C3)c1O [Rottlerin] (2 µM) | inactive: 0
17 | Cn1cc(C2=C(c3cn(C4CCN(Cc5ccccn5)CC4)c4ccccc34)C(=O)NC2=O)c2ccccc21 [Enzastaurin] (10 µM) | inactive: 0
18 | Cc1ccccc1-n1c(Cn2ncc3c(N)ncnc32)nc2cccc(C)c2c1=O (10 µM) | inactive: 0
19 | O=c1[nH]c2ccccc2n1C1CCN(Cc2ccc(-c3[nH]c4cc5ncnc5cc4nc3-c3ccccc3)cc2)CC1 [AKT inhibitor VIII] (2.5 µM) | inactive: 0
20 | C=CC(=O)Nc1ccc2[nH]c(=O)n(C3CCN(Cc4ccc(-c5nc6cc[nH]c(=O)c6cc5-c5ccccc5)cc4)CC3)c2c1 [Borussertib] (10 µM) | inactive: 0
21 | C[S+]([O-])/C=C/CCN=C=S (configuration not stated) [Sulforaphene] (10 µM) | inactive: 0
22 | CC1=C[C@]23C(=O)[C@@H](C=C(CO)[C@@H](O)[C@]2(O)[C@H]1O)[C@H]1[C@@H](C[C@H]3C)C1(C)C [Ingenol] (10 µM) | inactive: 0
23 | CCCCCCCCCCCCCCCCOC[C@H](COP(=O)([O-])OCC[N+](C)(C)C)OC(C)=O (10 µM) | inactive: 0
24 | Cc1ccccc1-n1c(Cn2cnc3c(N)ncnc32)nc2cccc(C)c2c1=O (10 µM) | inactive: 0
25 | COc1ccc2c(c1)[nH]c1c(C)nccc12 [Harmine] (10 µM) | inactive: 0
26 | O=C(N[C@@H](COc1ccc2[nH]c(=O)[nH]c2c1)c1ccccc1)c1cccn(Cc2ccc(F)c(F)c2)c1=O (2.5 µM) | inactive: 0
27 | COc1cc2c(cc1F)C(c1ccccc1Cl)=Nc1c(n[nH]c1C)N2 (0.5 µM) | inactive: 0
28 | N#CC(C#N)=Cc1ccc(O)c(O)c1 [Tyrphostin 23] (10 µM) | inactive: 0
29 | N#CC(C#N)=NNc1cccc(Cl)c1 (2.5 µM) | inactive: 0

Molecular target: BTK (UniProt Q06187)
Experiment: as above
Settings: K562; 2-18 h

Row | SMILES | kinase-Nluc reporter destabilization hit call
30 | O=c1cc(O)c2ccccc2o1 [4-Hydroxycoumarin] (10 µM) | inactive: 0
31 | CCCCNc1nc(N)c2[nH]c(=O)n(Cc3ccc(C)nc3)c2n1 (10 µM) | inactive: 0
32 | CCCS(=O)(=O)Nc1ccc(F)c(-n2cc(-c3cncnc3)c3nc(N(C)C4CCN(CC)CC4)ccc32)c1F (2 µM) | inactive: 0
33 | C[C@H]1CC[C@]2(NC1)O[C@H]1C[C@H]3[C@@H]4CC[C@H]5C[C@@H](O[C@@H]6O[C@H](CO)[C@H](O[C@@H]7O[C@H](CO)[C@@H](O)[C@H](O[C@@H]8OC[C@@H](O)[C@H](O)[C@H]8O)[C@H]7O[C@@H]7O[C@H](CO)[C@@H](O)[C@H](O)[C@H]7O)[C@H](O)[C@H]6O)CC[C@]5(C)[C@H]4CC[C@]3(C)[C@H]1[C@@H]2C [Tomatine] (2.5 µM) | inactive: 0
34 | Cc1n[nH]cc1-c1cc2nc([C@@H]3CC4CCN3CC4)[nH]c(=O)c2s1 [Simurosertib] (2.5 µM) | inactive: 0
35 | O=Cc1cn(Cc2ccc(Cl)cc2)c2ccccc12 [Oncrasin-1] (10 µM) | inactive: 0
36 | CC(=O)OC(C)(C)/C=C/C(=O)[C@](C)(O)[C@H]1[C@H](O)C[C@@]2(C)[C@@H]3CC=C4[C@@H](C=C(O)C(=O)C4(C)C)[C@]3(C)C(=O)C[C@]12C [Cucurbitacin E] (2.5 µM) | inactive: 0
37 | C[C@@H]1CC[C@H]2[C@@H](C)C(=O)O[C@@H]3O[C@@]4(C)CC[C@@H]1[C@]32OO4 [Artemisinin] (10 µM) | inactive: 0
38 | COc1ccc2c(c1)/C(=C/c1cnc[nH]1)C(=O)N2 (2.5 µM) | inactive: 0
39 | CC(=O)O[C@H]1[C@H]2[C@@H](OC(=O)Cc3ccccc3)[C@@H](C)C[C@]2(OC(C)=O)C(=O)/C(C)=C/[C@@H]2[C@H](CC[C@@]13CO3)C2(C)C [Euphorbiasteroid] (10 µM) | inactive: 0
40 | O=c1[nH]c2ccccc2n1C1CCN(CCCC(c2ccc(F)cc2)c2ccc(F)cc2)CC1 [Pimozide] (2.5 µM) | inactive: 0
41 | CC(=O)Oc1ccc(/C=C/c2cc(OC(C)=O)cc(OC(C)=O)c2)cc1 [Triacetylresveratrol] (10 µM) | inactive: 0
42 | C/C=C(/C)C(=O)O[C@H]1[C@@H]2[C@H](C)C(=O)O[C@@H]2C[C@@H](C)[C@@H]2C=CC(=O)[C@]21C [Brevilin A] (2.5 µM) | inactive: 0
43 | O=[N+]([O-])/C=C/c1ccc2c(c1)OCO2 (2.5 µM) | inactive: 0
44 | O=C(O)c1nn(Cc2ccc(Cl)cc2Cl)c2ccccc12 [Lonidamine] (10 µM) | inactive: 0
45 | CC(=O)c1c(O)c(C)c(O)c(Cc2c(O)c3c(c(C(=O)/C=C/c4ccccc4)c2O)OC(C)(C)C=C3)c1O [Rottlerin] (2 µM) | inactive: 0
46 | Cn1cc(C2=C(c3cn(C4CCN(Cc5ccccn5)CC4)c4ccccc34)C(=O)NC2=O)c2ccccc21 [Enzastaurin] (10 µM) | inactive: 0
47 | Cc1ccccc1-n1c(Cn2ncc3c(N)ncnc32)nc2cccc(C)c2c1=O (10 µM) | inactive: 0
48 | O=c1[nH]c2ccccc2n1C1CCN(Cc2ccc(-c3[nH]c4cc5ncnc5cc4nc3-c3ccccc3)cc2)CC1 [AKT inhibitor VIII] (2.5 µM) | inactive: 0
49 | C=CC(=O)Nc1ccc2[nH]c(=O)n(C3CCN(Cc4ccc(-c5nc6cc[nH]c(=O)c6cc5-c5ccccc5)cc4)CC3)c2c1 [Borussertib] (10 µM) | inactive: 0
50 | C[S+]([O-])/C=C/CCN=C=S (configuration not stated) [Sulforaphene] (10 µM) | inactive: 0
51 | CC1=C[C@]23C(=O)[C@@H](C=C(CO)[C@@H](O)[C@]2(O)[C@H]1O)[C@H]1[C@@H](C[C@H]3C)C1(C)C [Ingenol] (10 µM) | inactive: 0
52 | CCCCCCCCCCCCCCCCOC[C@H](COP(=O)([O-])OCC[N+](C)(C)C)OC(C)=O (10 µM) | inactive: 0
53 | Cc1ccccc1-n1c(Cn2cnc3c(N)ncnc32)nc2cccc(C)c2c1=O (10 µM) | inactive: 0
54 | COc1ccc2c(c1)[nH]c1c(C)nccc12 [Harmine] (10 µM) | inactive: 0
55 | O=C(N[C@@H](COc1ccc2[nH]c(=O)[nH]c2c1)c1ccccc1)c1cccn(Cc2ccc(F)c(F)c2)c1=O (2.5 µM) | inactive: 0
56 | N#CC(C#N)=Cc1ccc(O)c(O)c1 [Tyrphostin 23] (10 µM) | inactive: 0
57 | N#CC(C#N)=NNc1cccc(Cl)c1 (2.5 µM) | inactive: 0
